Assay results reported in paper PMC3374799.
No constants are given. Whether binding was seen depends on the method and setting. Binding seen in cells or lysates may run through a third protein. Some binding calls cover weakened binding; strength is not graded here.

By UniProt entry, the sequences of proteins in these tests, tags left out. Where a name states a change or a piece, a line headed by the entry shows the natural chain unless it says otherwise. Chains listed by the source or under a name are the forms on record and can include a tag or linker.
GST-karyopherin β (GST-KPNB) (F1RWJ5, form named): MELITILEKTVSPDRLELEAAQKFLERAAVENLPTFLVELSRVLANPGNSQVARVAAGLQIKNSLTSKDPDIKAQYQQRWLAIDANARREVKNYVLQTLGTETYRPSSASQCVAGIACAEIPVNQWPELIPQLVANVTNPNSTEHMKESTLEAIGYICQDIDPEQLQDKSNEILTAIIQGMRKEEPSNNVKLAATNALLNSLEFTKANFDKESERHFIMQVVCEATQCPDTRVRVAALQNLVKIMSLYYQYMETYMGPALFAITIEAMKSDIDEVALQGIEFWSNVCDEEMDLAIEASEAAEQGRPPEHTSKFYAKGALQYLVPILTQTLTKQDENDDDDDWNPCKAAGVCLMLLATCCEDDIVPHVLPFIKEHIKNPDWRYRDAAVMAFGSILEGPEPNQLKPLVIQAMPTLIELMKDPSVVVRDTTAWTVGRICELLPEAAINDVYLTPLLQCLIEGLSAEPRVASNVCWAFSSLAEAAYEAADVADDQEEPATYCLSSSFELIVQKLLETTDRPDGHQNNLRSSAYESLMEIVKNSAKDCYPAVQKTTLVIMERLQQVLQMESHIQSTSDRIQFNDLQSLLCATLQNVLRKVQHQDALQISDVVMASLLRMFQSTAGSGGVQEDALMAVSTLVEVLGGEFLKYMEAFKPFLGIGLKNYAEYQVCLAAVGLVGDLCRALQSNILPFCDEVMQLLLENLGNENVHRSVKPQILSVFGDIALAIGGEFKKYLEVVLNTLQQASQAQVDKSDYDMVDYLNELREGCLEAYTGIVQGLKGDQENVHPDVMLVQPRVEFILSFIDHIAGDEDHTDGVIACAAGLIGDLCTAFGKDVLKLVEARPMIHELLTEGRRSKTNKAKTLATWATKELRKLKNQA
UniProt C6K7I2: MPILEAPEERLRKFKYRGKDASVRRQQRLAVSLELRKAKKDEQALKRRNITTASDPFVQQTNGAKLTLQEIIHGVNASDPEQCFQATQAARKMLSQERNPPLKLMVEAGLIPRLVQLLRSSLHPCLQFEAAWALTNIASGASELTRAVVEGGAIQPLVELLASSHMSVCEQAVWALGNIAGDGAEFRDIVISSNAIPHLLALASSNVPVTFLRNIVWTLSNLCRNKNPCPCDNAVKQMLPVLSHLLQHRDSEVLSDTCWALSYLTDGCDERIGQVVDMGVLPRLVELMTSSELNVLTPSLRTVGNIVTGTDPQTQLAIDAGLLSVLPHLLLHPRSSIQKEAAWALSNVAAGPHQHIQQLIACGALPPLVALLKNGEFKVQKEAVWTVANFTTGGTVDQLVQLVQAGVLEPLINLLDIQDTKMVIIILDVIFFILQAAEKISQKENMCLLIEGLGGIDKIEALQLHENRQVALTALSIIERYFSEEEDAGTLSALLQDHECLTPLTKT
S35-labeled porcine KPNA1 (from the GFP-tagged vector) (A0ACM8QJN5, form named): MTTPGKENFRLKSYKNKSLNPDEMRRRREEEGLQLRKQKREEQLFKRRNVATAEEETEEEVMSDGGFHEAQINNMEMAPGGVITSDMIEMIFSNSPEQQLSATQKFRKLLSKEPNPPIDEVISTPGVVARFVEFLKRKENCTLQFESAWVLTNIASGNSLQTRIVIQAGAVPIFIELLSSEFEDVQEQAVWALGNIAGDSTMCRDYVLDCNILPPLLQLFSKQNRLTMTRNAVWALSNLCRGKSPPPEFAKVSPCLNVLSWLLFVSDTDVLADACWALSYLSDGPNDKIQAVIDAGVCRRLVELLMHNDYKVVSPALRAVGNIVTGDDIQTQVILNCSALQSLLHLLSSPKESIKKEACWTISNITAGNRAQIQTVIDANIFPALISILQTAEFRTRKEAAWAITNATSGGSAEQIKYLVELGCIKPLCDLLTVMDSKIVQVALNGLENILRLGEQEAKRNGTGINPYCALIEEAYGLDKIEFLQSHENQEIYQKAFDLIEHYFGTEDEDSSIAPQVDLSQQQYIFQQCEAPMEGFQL

Target: GST-karyopherin β (GST-KPNB) (porcine) (UniProt F1RWJ5)
Experiment: pull-down; 10 µg GST protein, glutathione agarose beads and reticulocyte lysate with 35S-labelled KPNA; 50 mM Tris-HCl, 150 mM NaCl, 5 mM EGTA, 1% Triton X-100, pH 7.3, 2 h at 4°C; three PBS washes; autoradiography; only the target purified

binding | Substance
binds | S35-labeled porcine KPNA7 (from the GFP-tagged vector) (from UniProt C6K7I2 1-507)
binds | S35-labeled porcine KPNA1 (from the GFP-tagged vector) (from UniProt A0ACM8QJN5 1-538)
